Measurements published in PMC8893695, “The microprotein Nrs1 rewires the G1/S transcriptional machinery during nitrogen limitation in budding yeast” (PLoS Biology, 2022).
No constants are given. Whether binding was seen depends on the method and setting. Binding seen in cells or lysates may run through a third protein. Here binding means that the protein was enriched with, or labelled near, the bait; the list need not be complete.

Biological target: Nrs1^13MYC (S. cerevisiae)
Assay: affinity purification with mass spectrometry; anti-MYC immunoprecipitation from lysates of the endogenously tagged NRS1^13MYC strain and an untagged control grown in nitrogen-limited YNB+Pro medium; hits filtered against the control and the CRAPome

B1: Swi4 (protein, UniProt P25302 1-1093)
chain: MPFDVLISNQKDNTNHQNITPISKSVLLAPHSNHPVIEIATYSETDVYECYIRGFETKIVMRRTKDDWINITQVFKIAQFSKTKRTKILEKESNDMQHEKVQGGYGRFQGTWIPLDSAKFLVNKYEIIDPVVNSILTFQFDPNNPPPKRSKNSILRKTSPGTKITSPSSYNKTPRKKNSSSSTSATTTAANKKGKKNASINQPNPSPLQNLVFQTPQQFQVNSSMNIMNNNDNHTTMNFNNDTRHNLINNISNNSNQSTIIQQQKSIHENSFNNNYSATQKPLQFFPIPTNLQNKNVALNNPNNNDSNSYSHNIDNVINSSNNNNNGNNNNLIIVPDGPMQSQQQQQHHHEYLTNNFNHSMMDSITNGNSKKRRKKLNQSNEQQFYNQQEKIQRHFKLMKQPLLWQSFQNPNDHHNEYCDSNGSNNNNNTVASNGSSIEVFSSNENDNSMNMSSRSMTPFSAGNTSSQNKLENKMTDQEYKQTILTILSSERSSDVDQALLATLYPAPKNFNINFEIDDQGHTPLHWATAMANIPLIKMLITLNANALQCNKLGFNCITKSIFYNNCYKENAFDEIISILKICLITPDVNGRLPFHYLIELSVNKSKNPMIIKSYMDSIILSLGQQDYNLLKICLNYQDNIGNTPLHLSALNLNFEVYNRLVYLGASTDILNLDNESPASIMNKFNTPAGGSNSRNNNTKADRKLARNLPQKNYYQQQQQQQQPQNNVKIPKIIKTQHPDKEDSTADVNIAKTDSEVNESQYLHSNQPNSTNMNTIMEDLSNINSFVTSSVIKDIKSTPSKILENSPILYRRRSQSISDEKEKAKDNENQVEKKKDPLNSVKTAMPSLESPSSLLPIQMSPLGKYSKPLSQQINKLNTKVSSLQRIMGEEIKNLDNEVVETESSISNNKKRLITIAHQIEDAFDSVSNKTPINSISDLQSRIKETSSKLNSEKQNFIQSLEKSQALKLATIVQDEESKVDMNTNSSSHPEKQEDEEPIPKSTSETSSPKNTKADAKFSNTVQESYDVNETLRLATELTILQFKRRMTTLKISEAKSKINSSVKLDKYRNLIGITIENIDSKLDDIEKDLRANA
  binding: binds

B2: Swi6 (protein, UniProt P09959 1-803)
chain: MALEEVVRYLGPHNEIPLTLTRDSETGHFLLKHFLPILQQYHDTGNINETNPDSFPTDEERNKLLAHYGIAVNTDDRGELWIELEKCLQLLNMLNLFGLFQDAFEFEEPETDQDEEDPSHSKLPENKTKSENSKDNISSKRINNLQDMSLDSDAHRELGSPLKKLKIDTSVIDAESDSTPNTARGKPNDDINKGPSGDNENNGTDDNDRTAGPIITFTHDLTSDFLSSPLKIMKALPSPVVNDNEQKMKLEAFLQRLLFPEIQEMPTSLNNDSSNRNSEGGSSNQQQQHVSFDSLLQEVNDAFPNTQLNLNIPVDEHGNTPLHWLTSIANLELVKHLVKHGSNRLYGDNMGESCLVKAVKSVNNYDSGTFEALLDYLYPCLILEDSMNRTILHHIIITSGMTGCSAAAKYYLDILMGWIVKKQNRPIQSGTNEKESKPNDKNGERKDSILENLDLKWIIANMLNAQDSNGDTCLNIAARLGNISIVDALLDYGADPFIANKSGLRPVDFGAGTSKLQNTNGGDENSKMVSKGDYDGQKNGKAKKIRSQLLKNPPETTSLINDVQNLLNSISKDYENETVQYNEKLEKLHKELNEQREELANSREQLANVKQLKDEYSLMQEQLTNLKAGIEEEEESFREESKKLGIIADESSGIDWDSSEYDADEPFKVEFLSDFLEDKLQKNYEGDISKLLEAESKEQIMEQIRNQLPAEKIQSMLPPTVLLKARINAYKRNDKHLTNVLDTISTKQSELENKFRRVLSLCLKIDENKVDNMLDGLLQAISSEDPQDIDTDEMQDFLKKHAS
  binding: binds
